In PMC4851370, “The N-Terminus of the Floral Arabidopsis TGA Transcription Factor PERIANTHIA Mediates Redox-Sensitive DNA-Binding”:
Where a chain is given by its changes, count along the chain named. The exact form of at least one protein or probe is not confirmed. For some assays here: A weaker result is weaker than the reference pair of the same experiment. Where a protein sequence is shown, tags need not be part of it. At least one verdict rests on a figure or table, not on a statement of the authors.

Assays:
Test in all cases: EMSA
[1] = biological target: T1, PANC340S (Arabidopsis thaliana) (UniProt Q9SX27); settings: with or without 0.9 or 20 mM DTT or 2 mM diamide, 30 min in the dark before probe addition, protein translated in vitro, residues 1-452, label: 5' 32P
T1 sequence (looked up): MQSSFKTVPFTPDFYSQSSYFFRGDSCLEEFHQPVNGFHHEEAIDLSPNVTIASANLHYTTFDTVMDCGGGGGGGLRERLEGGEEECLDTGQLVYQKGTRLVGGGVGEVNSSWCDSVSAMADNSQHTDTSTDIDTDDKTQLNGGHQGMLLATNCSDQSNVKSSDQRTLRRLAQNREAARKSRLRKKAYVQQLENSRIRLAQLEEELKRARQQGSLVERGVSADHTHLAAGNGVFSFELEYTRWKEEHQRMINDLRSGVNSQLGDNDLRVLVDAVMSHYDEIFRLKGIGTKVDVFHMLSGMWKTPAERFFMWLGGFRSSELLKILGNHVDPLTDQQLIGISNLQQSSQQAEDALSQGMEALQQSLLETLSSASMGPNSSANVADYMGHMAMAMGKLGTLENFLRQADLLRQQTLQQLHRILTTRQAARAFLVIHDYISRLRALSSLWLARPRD

[2] = biological target: T2, PANC27SC68SC87SC114SC154SC340S (PAN6xCysmut) (Arabidopsis thaliana) (UniProt Q9SX27); settings: 0.9 mM DTT; with or without 0.9 or 20 mM DTT or 2 mM diamide, 30 min in the dark before probe addition; protein translated in vitro; residues 1-452; label: 5' 32P
T2 sequence (looked up): T1 sequence (looked up) with C27S, C68S, C87S, C114S, C154S

[3] = biological target: T3, PANC154S (Arabidopsis thaliana) (UniProt Q9SX27); settings: with or without 0.9 or 20 mM DTT or 2 mM diamide, 30 min in the dark before probe addition, protein translated in vitro, residues 1-452, label: 5' 32P
T3 sequence (looked up): T1 sequence (looked up) with C154S, S340C

AAGAATCTTTGATCACGTCATCACTCAGATATT (double strand)
binding result ([1]; 0.9 mM DTT): binds
binding result ([1]; 2 mM diamide): binds more weakly
binding result [2]: binds
binding result ([3]; 0.9 mM DTT): binds
binding result ([3]; 2 mM diamide): binds more weakly
